Chains of the proteins cited; added tags and fusions are not shown.
UniProt P08659, whole entry, looked up: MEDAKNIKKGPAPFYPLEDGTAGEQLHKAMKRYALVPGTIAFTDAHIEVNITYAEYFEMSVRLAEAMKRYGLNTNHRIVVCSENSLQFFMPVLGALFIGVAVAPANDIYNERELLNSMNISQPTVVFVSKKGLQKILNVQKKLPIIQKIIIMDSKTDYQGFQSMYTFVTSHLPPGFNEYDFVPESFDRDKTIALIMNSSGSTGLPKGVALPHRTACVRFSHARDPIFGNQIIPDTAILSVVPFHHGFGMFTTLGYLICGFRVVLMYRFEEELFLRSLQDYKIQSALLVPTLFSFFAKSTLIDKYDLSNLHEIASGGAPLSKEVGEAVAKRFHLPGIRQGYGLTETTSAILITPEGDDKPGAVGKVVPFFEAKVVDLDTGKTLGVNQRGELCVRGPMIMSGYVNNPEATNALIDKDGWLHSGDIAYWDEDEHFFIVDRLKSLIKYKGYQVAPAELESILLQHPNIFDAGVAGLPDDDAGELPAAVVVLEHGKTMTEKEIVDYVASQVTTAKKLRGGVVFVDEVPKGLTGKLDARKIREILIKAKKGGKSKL

In all, about 1,400 compounds went through this assay and about 10 (0.7%) were called active. Inconclusive results (about 2%) are left out. Calls follow the shape of the dose curve; as a rule, active = well fitted inhibition curve with a large enough effect; inconclusive = small, poorly fitted or top-dose-only effect; inactive = flat fitted curve, though single readings scatter. The entries are a selection whose mix differs from that of the whole data set.
What follows are compounds tested against Luciferin 4-monooxygenase (Photinus pyralis) (UniProt P08659) (assay: Natriuretic polypeptide receptor (hNpr1) antagonism - Confirmation firefly luciferase (FLuc) inhibition counterscreen). Details: purified FLuc enzyme, luminescence, Km substrate; at 57.6 µM (top of the series) unless noted.
Description: Firefly (Photinus pyralis) luciferase (FLuc) is one of the more frequently used transcriptional reporter genes, and it has also been developed as a cellular sensor for cyclic nucleotides. (Fan F & Wood KV, 2007; Fan F et al., 2008) However, a significant number of compounds that populate chemical libraries have been identified as FLuc ligands which can be mistaken for modulators of the intended targeted pathways, receptors or enzymes. (Auld, DS et al. 2008; Thorne, N et al. 2012) Therefore, the FLuc enzyme assay conducted at sensitive Km level substrate conditions is used to counter-screen for potential FLuc ligands. Auld DS, Thorne N, Nguyen DT & Inglese J A specific mechanism for nonspecific activation in reporter-gene assays. ACS Chem Biol. 2008, 3: 463-470. DOI: 10.1021/cb8000793 Fan F, Binkowski BF, Butler BL, Stecha PF, Lewis MK, Wood KV. Novel genetically encoded biosensors using firefly luciferase. ACS Chem Biol. 2008, 3: 346-351. DOI: 10.1021/cb8000414 Fan F and Wood KV. Bioluminescent assays for high-throughput screening. Assay Drug Dev Technol. 2007, 5: 127-136. […] Chemistry & Biology, 2012, 19: 1060-1072. DOI.org/10.1016/j.chembiol.2012.07.015
PROTOCOL TABLE (as described by Inglese J, Shamu CE and Guy RK. 2007) SEQUENCE No. (e.g., 1, 2, 3, etc.); PARAMETER (e.g., Cells, Incubation, Reagent, etc.); VALUE and DESCRIPTION. FLUC KM ENZYME COUNTERSCREEN (Thorne, N.T. et al. 2012) 1. Reagent. Add 3 uL of D-luciferin substrate buffer per well into Greiner 1536-well white/solid bottom high base, medium bind plates. 2. Compounds. Library compounds and PTC124 control added at 23nL per well, transferred by Pin Tool. 3. Incubation. Incubate plates at room temperature for […], protect from light. 4. Reagent. Add 1uL of P. pyralis luciferase (FLuc) per well of Greiner 1536-well plates. 5. Incubation. Incubate plates at room temperature for 10 min., protect from light. 6. Detector. FLuc luminescence measured using CCD-based camera (Viewlux). NOTES (numbers refer to Sequence numbers above) 1. Substrate buffer: 10 uM D-luciferin final concentration in 50 mM Tris-Acetate, pH 7.6, 10 mM Mg-Acetate, 10 uM ATP, 0.01% Tween-20, and 0.05% BSA buffer added at 3uL/well to 13 x Greiner 1536-well white/solid bottom high base, medium bind plates. 2. PTC124 stock solution prepared (10 mM in DMSO; Auld D.S. et al. 2010). Working dilution for dispense = 10 mM stock dilution (57.5 uM final concentration; 16-pt 1:3 titration in duplicate = final concentration range of 57.5 uM - 4 pM). 23nL of library compounds, PTC124 control or DMSO vehicle control transferred to the 13 substrate-containing Greiner white/solid bottom high base, medium bind plates in 11 interplate 1:3 titrations (see Yasgar, A. et al. 2008) with Pintool. 3. Substrate incubated for 30-50 min. at ambient temperature protected from light with metal lid. 4. Enzyme solution: 10 nM P. pyralis luciferase (FLuc) final concentration in 50 mM Tris-Acetate, pH 7.6 added at 1uL to 13 x Greiner 1536-well white/solid bottom high base, medium bind plates. 5. Substrate and enzyme incubated with test library compounds and controls for 10 min. at ambient temperature protected from light with metal lid. 6. Read final Luminescence on the ViewLux. [Exposure = 30 s.; Gain = High; Speed = Slow; and Binning = 2X.] REFERENCES: Auld DS, Lovell S, Thorne N, Lea WA, Maloney DJ, Shen M, Rai G, Battaile KP, Thomas CJ, Simeonov A, Hanzlik RP and Inglese J. Molecular basis for the high-affinity binding and stabilization of firefly luciferase by PTC124. […] Chemistry & Biology, 2012, 19: 1060-1072. doi.org/10.1016/j.chembiol.2012.07.015 Yasgar A, Shinn P, Jadhav A, Auld DS, Michael S, Zheng W, Austin CP, Inglese J and Simeonov A, Compound Management for Quantitative High-Throughput Screening. J. Assoc. Lab. Auto., 2008, 13: 79-89. doi: 10.1016/j.jala.2007.12.004
With `COc1cc2c(cc1Oc1cccc(N(C)C)c1)NC(=O)C21CCN(Cc2ccccn2)CC1` the activity change, negative = inhibition was inactive: -7.03%.
In the case of `COc1cc2c(cc1Oc1cccc(N(C)C)c1)NC(=O)C21CCN(CCC(C)C)CC1`, the activity change, negative = inhibition is reported as inactive: 2.27% [at 86.2 µM].
`COc1cc2c(cc1OCc1ccncc1)NC(=O)C21CCN(c2ncc(F)cn2)CC1` was tested, and the activity change, negative = inhibition was inactive: -0.173% [at 86.2 µM].
For `COc1cc2c(cc1Oc1cccc(N(C)C)c1)NC(=O)C21CCN(c2cnccn2)CC1`, the activity change, negative = inhibition was inactive: 1.45%.
In the case of `CCC(CC)c1cc([C@H]2CN3CC[C@H]2C[C@@H]3CNS(=O)(=O)c2ccccc2C#N)nc(-c2ccncc2)n1`, the activity change, negative = inhibition is reported as inactive: 0.712%.
`CCC(CC)c1cc([C@H]2CN3CC[C@H]2C[C@@H]3CNC(=O)NCc2ccccc2)nc(-c2ccncc2)n1` was tested, and the activity change, negative = inhibition was inactive: 4.17%.
`CCC(CC)c1cc([C@H]2CN3CC[C@H]2C[C@@H]3CNS(=O)(=O)Cc2ccccc2)nc(-c2ccncc2)n1` was tested, and the activity change, negative = inhibition was inactive: 0.736%.

From PubChem BioAssay AID1347047 (National Center for Advancing Translational Sciences (NCATS), 2019)
Also: 0% is about no effect.
